Test results from PMC9070665.
These are yes or no findings as the source states them, for the method shown. Binding seen in cells or lysates may run through a third protein. Some entries that bind do so weakly or less than the wild type. Where a sequence is shown, tags or fusion partners need not be part of it.

The chains behind the UniProt entries cited, without tags or fusion partners.
UniProt Q96S21: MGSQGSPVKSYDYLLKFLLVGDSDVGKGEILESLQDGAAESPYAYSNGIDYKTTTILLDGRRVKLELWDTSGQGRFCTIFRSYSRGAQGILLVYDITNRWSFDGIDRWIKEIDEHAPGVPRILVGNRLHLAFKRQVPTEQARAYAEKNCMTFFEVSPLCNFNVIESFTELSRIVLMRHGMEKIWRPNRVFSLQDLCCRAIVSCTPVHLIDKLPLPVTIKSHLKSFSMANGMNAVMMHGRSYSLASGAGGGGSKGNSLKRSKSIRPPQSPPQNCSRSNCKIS

Legend:
Experiment in all cases: co-IP; 293T cells co-transfected with HA-Rab40c and one FLAG-tagged PP6 component or PP6R1 deletion mutant; anti-FLAG IP, anti-HA blot
FLAG-ANKRD44 (human) = biological target: T1, FLAG-ANKRD44 (human) (UniProt Q8N8A2)
T1 sequence: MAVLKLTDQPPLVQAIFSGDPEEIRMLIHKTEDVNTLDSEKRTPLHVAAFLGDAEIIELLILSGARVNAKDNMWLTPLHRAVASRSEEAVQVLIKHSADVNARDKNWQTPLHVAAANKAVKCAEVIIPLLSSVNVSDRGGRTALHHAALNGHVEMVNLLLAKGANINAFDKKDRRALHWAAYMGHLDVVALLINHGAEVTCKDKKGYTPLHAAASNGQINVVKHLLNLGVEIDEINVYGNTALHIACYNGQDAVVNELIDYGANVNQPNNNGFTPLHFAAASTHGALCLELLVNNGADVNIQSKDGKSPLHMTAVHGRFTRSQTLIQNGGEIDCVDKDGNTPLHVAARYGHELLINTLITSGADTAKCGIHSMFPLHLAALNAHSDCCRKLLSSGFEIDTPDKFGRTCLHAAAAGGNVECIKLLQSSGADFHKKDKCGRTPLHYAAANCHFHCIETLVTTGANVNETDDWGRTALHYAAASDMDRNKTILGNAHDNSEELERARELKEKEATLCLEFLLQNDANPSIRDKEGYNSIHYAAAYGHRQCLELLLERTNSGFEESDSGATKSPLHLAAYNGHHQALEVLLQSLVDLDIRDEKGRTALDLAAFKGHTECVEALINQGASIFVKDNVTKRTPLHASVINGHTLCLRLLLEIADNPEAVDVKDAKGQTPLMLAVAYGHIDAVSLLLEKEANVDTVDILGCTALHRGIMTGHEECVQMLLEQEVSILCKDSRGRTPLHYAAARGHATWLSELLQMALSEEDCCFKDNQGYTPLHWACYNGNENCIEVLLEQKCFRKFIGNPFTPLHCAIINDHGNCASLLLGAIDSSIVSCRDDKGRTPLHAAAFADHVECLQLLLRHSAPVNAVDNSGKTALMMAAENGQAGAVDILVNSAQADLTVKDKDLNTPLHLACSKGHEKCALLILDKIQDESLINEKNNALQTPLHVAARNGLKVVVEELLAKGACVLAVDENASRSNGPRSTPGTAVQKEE

FLAG-ANKRD52 (human) = biological target: T2, FLAG-ANKRD52 (human) (UniProt Q8NB46)
T2 sequence: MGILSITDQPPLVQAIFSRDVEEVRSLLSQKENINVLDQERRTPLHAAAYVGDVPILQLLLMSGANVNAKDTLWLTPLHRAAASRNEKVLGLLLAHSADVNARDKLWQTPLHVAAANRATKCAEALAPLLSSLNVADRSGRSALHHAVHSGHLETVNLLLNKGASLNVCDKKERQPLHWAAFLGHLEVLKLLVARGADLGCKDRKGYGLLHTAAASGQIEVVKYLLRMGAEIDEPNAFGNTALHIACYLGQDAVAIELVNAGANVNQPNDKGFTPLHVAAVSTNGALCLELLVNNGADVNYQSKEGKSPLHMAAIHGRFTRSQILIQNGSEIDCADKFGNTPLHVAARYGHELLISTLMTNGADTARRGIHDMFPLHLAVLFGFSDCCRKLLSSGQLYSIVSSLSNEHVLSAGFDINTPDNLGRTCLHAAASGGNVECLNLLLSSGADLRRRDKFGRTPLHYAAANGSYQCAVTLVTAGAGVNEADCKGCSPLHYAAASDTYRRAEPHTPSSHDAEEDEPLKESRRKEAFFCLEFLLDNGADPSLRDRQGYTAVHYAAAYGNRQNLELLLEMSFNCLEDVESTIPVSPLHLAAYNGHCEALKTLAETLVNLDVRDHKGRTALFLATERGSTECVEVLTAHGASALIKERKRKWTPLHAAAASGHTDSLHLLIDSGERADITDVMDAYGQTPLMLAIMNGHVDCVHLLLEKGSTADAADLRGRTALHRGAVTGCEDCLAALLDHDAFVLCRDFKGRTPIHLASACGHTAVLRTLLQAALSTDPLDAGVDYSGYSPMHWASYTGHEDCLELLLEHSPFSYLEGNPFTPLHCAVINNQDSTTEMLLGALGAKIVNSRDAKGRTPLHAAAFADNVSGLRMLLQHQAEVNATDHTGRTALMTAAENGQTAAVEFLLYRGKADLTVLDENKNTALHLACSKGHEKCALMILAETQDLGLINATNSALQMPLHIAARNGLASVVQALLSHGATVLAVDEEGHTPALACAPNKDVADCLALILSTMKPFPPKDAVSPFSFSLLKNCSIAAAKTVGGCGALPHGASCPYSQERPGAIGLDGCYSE

FLAG-PP6R1 (human) = biological target: T3, FLAG-PP6R1 (human) (UniProt Q9UPN7)
T3 sequence: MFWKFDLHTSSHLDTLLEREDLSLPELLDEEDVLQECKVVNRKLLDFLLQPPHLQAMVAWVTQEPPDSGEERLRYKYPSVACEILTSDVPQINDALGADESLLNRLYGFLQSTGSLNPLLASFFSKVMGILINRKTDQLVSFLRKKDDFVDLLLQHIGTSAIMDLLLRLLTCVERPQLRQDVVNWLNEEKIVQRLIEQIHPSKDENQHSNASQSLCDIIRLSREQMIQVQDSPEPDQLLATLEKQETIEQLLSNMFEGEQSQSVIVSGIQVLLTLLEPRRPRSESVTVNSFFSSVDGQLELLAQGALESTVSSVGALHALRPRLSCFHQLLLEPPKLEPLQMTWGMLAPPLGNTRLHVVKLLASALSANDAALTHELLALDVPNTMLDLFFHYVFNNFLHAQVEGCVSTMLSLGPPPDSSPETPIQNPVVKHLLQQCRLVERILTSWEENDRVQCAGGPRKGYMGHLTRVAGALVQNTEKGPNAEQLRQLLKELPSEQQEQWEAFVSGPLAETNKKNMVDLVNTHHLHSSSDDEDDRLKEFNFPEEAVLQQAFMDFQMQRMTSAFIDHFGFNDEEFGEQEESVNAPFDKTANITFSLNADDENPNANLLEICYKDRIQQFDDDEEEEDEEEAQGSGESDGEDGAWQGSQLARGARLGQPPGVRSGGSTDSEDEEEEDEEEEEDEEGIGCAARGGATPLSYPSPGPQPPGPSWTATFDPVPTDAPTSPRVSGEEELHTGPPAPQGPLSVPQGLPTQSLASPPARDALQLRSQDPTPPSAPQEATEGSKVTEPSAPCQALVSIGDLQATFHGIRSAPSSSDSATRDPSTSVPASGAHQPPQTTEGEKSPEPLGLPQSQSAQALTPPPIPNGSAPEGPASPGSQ

Measured: binding

HA-Rab40c (from UniProt Q96S21 1-281)
binds: all assays above
